Measured data: PubChem BioAssay AID686943 (Drosophila RNAi Screening Center, 2013)

Purpose: 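Search across the genome for regulators of signalling from receptor tyrosine kinase to ERK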 (primary screen)
Cells: Drosophila S2R+ haemocyte-like cells expressing YFP-tagged ERK (Rolled)
Reagent: long dsRNA against Drosophila genes
Treatment: insulin stimulation versus unstimulated cells; dose and duration not given
Read-out: 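Antibody staining for doubly phosphorylated ERK divided by ERK-YFP signal, as plate z-scores, in insulin-treated and untreated cells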
Reading the numbers: replicate 1, z-score of dpERK with insulin and replicate 2, z-score of dpERK with insulin: higher = more active ERK per ERK-YFP after insulin
The deposit covers about 23,000 reagents; below is a random part of those that have a named target and a result. 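Extra replicates exist only for a retested subset of genes; insulin dose and duration not given; both raised and lowered dpERK matter.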 Reagents against one gene are numbered here. Names joined by + are all predicted targets of the reagent. Not all columns of the deposit are shown. The record does not give: the amount of reagent, the time to read-out.

| gene knocked down | dsRNA no. | replicate 1, z-score of dpERK with insulin | replicate 2, z-score of dpERK with insulin |
| --- | --- | --- | --- |
| CG32485 | 1 | 0.34 | 0.07 |
| tth | 1 | -1.13 | 0.61 |
| Rok | 1 | -1.28 | 0.31 |
| Pvf1 | 1 | 1.05 | 0.38 |
| CG42565 | 1 | -0.21 | 0.14 |
| bcd + CR14578 | 1 | -0.24 | 0.53 |
| CG15025 | 1 | -0.47 | 0.25 |
| Ndf | 1 | -1.13 | -0.66 |
| AspRS-m | 1 | 0.91 | 0.17 |
| m | 1 | -0.07 | 0.31 |
| CG3306 | 1 | 0.05 | 0.55 |
| skd | 1 | 2.41 | 1.38 |
| CG7744 | 1 | -0.76 | 0.08 |
| CG8079 | 1 | -0.01 | 1.55 |
| CG8079 | 2 | 0.04 | 0.55 |
| CG31802 | 1 | 0.89 | 0.07 |
| ND5 (retired record) | 1 | 0.2 | 0.34 |
| CG12817 | 1 | 0.71 | 0.49 |
| CG34164 | 1 | -0.04 | 0.01 |
| Cyp6a15Psi | 1 | -0.03 | 0.4 |
| RpL10Aa | 1 | -1.37 | -1.04 |
| CG30122 | 1 | 0.73 | 0.88 |
| CG30122 | 2 | 0.17 | 0.07 |
| Pfdn2 | 1 | -0.64 | -0.58 |
| His4:CG33883 + His4:CG33889 + His4:CG33899 + 20 more | 1 | -4.25 | -3.67 |
| CG4836 | 1 | 1.5 | 0.83 |
| CG4836 | 2 | 0.12 | -0.17 |
| CG4653 | 1 | 1.2 | 2.04 |
| CG4653 | 2 | -3.51 | -1.93 |
| CG4884 | 1 | 0.36 | 0.44 |
| Mau2 | 1 | -0.51 | -0.23 |
| CG34051 | 1 | 0.48 | -0.9 |
| CG17780 + CG17781 | 1 | -0.17 | -0.1 |
| CG34165 | 1 | -3.22 | -4.47 |
| Nab2 | 1 | -0.08 | 0.62 |
| CG11663 | 1 | -2.18 | -2.45 |
| Mtr4 | 1 | 1.19 | 0.41 |
| Ca-beta | 1 | 1.2 | -0.38 |
| Ca-beta | 2 | 2.45 | 0.02 |
| Ca-beta | 3 | 1.97 | 0.52 |
| Ca-beta | 4 | 0.09 | 0.71 |
| Gr22a | 1 | -0.14 | 0.52 |
| CG1113 | 1 | -1.06 | 0.23 |
| tbrd-2 | 1 | -0.24 | 0 |
| Ror | 1 | 0.05 | 0.12 |
| CG13313 | 1 | -0.87 | -0.07 |
| ari-2 | 1 | 2.72 | 1.04 |
| Srp68 | 1 | -0.53 | 0.12 |
| CG34041 | 1 | 0.29 | 0.27 |
| CG30281 | 1 | 0.04 | -0.43 |
| Cpr65Az | 1 | 1.38 | 1.07 |
| Cpr65Az | 2 | -0.05 | 0.14 |
| CG43089 | 1 | 0.1 | 0.25 |
| CG11674 | 1 | 0.24 | -0.28 |
| Itpr | 1 | 0.5 | 0.88 |
| CG17121 | 1 | 2.28 | -0.27 |
| CG5217 | 1 | -0.17 | 0.52 |
| CG30398 | 1 | -0.55 | -0.27 |
| CR30409 | 1 | -0.59 | -0.12 |
| CG32409 | 1 | 0.23 | 0.53 |
| Klp3A | 1 | 0.62 | 0.41 |
| Klp3A | 2 | 0.17 | -0.02 |
| GstD7 | 1 | 1.44 | 0.77 |
| CG8206 | 1 | -0.98 | -0.39 |
| Dnaaf4 | 1 | -0.4 | -0.37 |
| CG10357 | 1 | -0.46 | -0.27 |
| Cp15 | 1 | -0.08 | -0.32 |
| alpha-Est8 | 1 | -0.17 | -0.54 |
| Idgf4 | 1 | -0.2 | 0.03 |
| Pop2 | 1 | -3.28 | -2.05 |
| CG14573 | 1 | 1.3 | 0.1 |
| Nup50 | 1 | 1.58 | 0.38 |
| CG32152 | 1 | 0.56 | -0.34 |

Laid out differently: 10 of the entries above.
CG7744
- replicate 1, z-score of dpERK with insulin: -0.76
- replicate 2, z-score of dpERK with insulin: 0.08

CG8079 #1
- replicate 1, z-score of dpERK with insulin: -0.01
- replicate 2, z-score of dpERK with insulin: 1.55

CG8079 #2
- replicate 1, z-score of dpERK with insulin: 0.04
- replicate 2, z-score of dpERK with insulin: 0.55

CG31802
- replicate 1, z-score of dpERK with insulin: 0.89
- replicate 2, z-score of dpERK with insulin: 0.07

ND5 (retired record)
- replicate 1, z-score of dpERK with insulin: 0.2
- replicate 2, z-score of dpERK with insulin: 0.34

CG12817
- replicate 1, z-score of dpERK with insulin: 0.71
- replicate 2, z-score of dpERK with insulin: 0.49

CG34164
- replicate 1, z-score of dpERK with insulin: -0.04
- replicate 2, z-score of dpERK with insulin: 0.01

Cyp6a15Psi
- replicate 1, z-score of dpERK with insulin: -0.03
- replicate 2, z-score of dpERK with insulin: 0.4

RpL10Aa
- replicate 1, z-score of dpERK with insulin: -1.37
- replicate 2, z-score of dpERK with insulin: -1.04

CG30122 #1
- replicate 1, z-score of dpERK with insulin: 0.73
- replicate 2, z-score of dpERK with insulin: 0.88
